Test system: rats
Assay: Neuromuscular impairment / roto-rod test
Settings: intraperitoneal dose of 20 mg per kg diazepam alone
Procedure: Further tests may be conducted to evaluate the agonist/antagonist profile of a compound. The procedures or methods used to determine anticonflict (shock-induced suppressions of drinking test), antagonism of metrazole-induced convulsions and neuromuscular impairment (roto-rod studies) are published in Eur. J. Pharmacol. 78(3):323-333 (1980) and briefly discussed below. To determine the antagonist properties of a test compound, subjects are treated with test agent intraperitoneally or orally at selected intervals prior to or following treatment with a benzodiazepine agonist, and are then tested under the appropriate test conditions.
A roto-rod test (Rinnard and Car, J. Pharmacol. and Exp. Therap. 121:354 (1957)) which measures the rat's muscle tone and ability to perform coordinated locomotor tasks may be used to evaluate a test compound's antagonist properties. In the roto-rod test, rats are trained to maintain themselves for at least 1 min on a rotating rod (6 r.p.m.). Subjects are treated with a test compound and are retested for their ability to maintain themselves on the roto-rod at 30 and 60 min. post-drug administration. Subjects that fail to stay on the rod for a one-minute period are considered to be neuromuscularly impaired (ataxia) and the ED50 (that dose which would be expected to produce ataxia in 50% of the rats tested) is calculated. […]

CN1C(=O)CN=C(c2ccccc2)c2cc(Cl)ccc21 [diazepam]
neuromuscular impairment (inability to remain on the roto-rod): significant neuromuscular impairment
